These results are taken from PubChem BioAssay AID445 (National Center for Advancing Translational Sciences (NCATS), 2006).

SMILES strings stand for the structures. This is one part of the list. These are further read-outs of the screen, such as a control signal, another cell line or another target. No call is given for them. Most of these compounds were active or inconclusive in the main read-out, so they are no random draw. Words in brackets tell the shape of the fitted curve; partial curves, single points and poor fits give uncertain potencies.

A short description of the assay: IkB Signaling. Particulars: ABC-DLBCL IkBa-CBG/CBR dual luciferase ratio (green luciferase fused to IkBa over red control in OCI-Ly3 lymphoma cells), 4 h; measured here: control luc red channel unless noted. In outline: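 Luminescence ratio of IκBα-fused green versus native red beetle luciferase in OCI-Ly3 cells, 4 h post-doxycycline with compound; red signal alone, scaled from basal (0%) to zero light (-100%), flagged nonspecific or cytotoxic effects.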
As a reminder, the AC50 is the concentration giving half of the maximal activity seen. For `CC1(C)CC2CC(C)(CN2CC(=O)C(C#N)c2ccccc2)C1` (centres undefined), the AC50 was 7.94 µM [falling, single point].

`Cc1sc2c(c1C)c(=O)n(-c1ccc(Cl)cc1)c(=O)n2Cc1cc(=O)n2ccccc2n1`: the concentration at half-maximal activity (AC50) was 6.31 µM [falling, full curve, poor fit].

In the case of `Cc1ccc2nc(N3CCC(C(=O)N4CCN(c5cccc(C)c5C)CC4)CC3)[nH]c2c1`, the half-maximal activity concentration (AC50) is 39.8 µM [falling, single point].

As to `FC(F)(F)c1cccc(-c2nc3nc(Cl)c(Cl)nc3[nH]2)c1`, the AC50 is 0.501 µM [falling, full curve].

Consider `COc1ccc(C2C(C(N)=O)=C(C)Nc3nc(SCc4ccccc4Cl)nn32)cc1OC` (centres undefined), for which the AC50 is 25.1 µM [falling, single point].

Take `Cc1ccc(CNC(=O)c2nc(SCc3ccccc3F)ncc2Cl)cc1`: the AC50 is 6.31 µM [falling, full curve, poor fit].

On to `CCOC(=O)c1ccc(N2C(=O)c3n[nH]c(C)c3C2c2cccc(Br)c2)cc1` (centres undefined), for which the half-maximal activity concentration (AC50) was 20 µM [falling, single point].

Consider `COc1ccc(CNC(=O)Cn2nnc(-c3ccc(C(F)(F)F)cc3)n2)cc1`, for which the AC50 was 0.0126 µM [falling, full curve, poor fit].

As for `CC1CCN(S(=O)(=O)c2ccc3c(c2)oc(=O)n3CC(=O)NCc2ccc3c(c2)OCO3)CC1`, the AC50 is 15.8 µM [falling, partial curve].

Consider `O=c1cc(-c2ccccc2)n2c(SCc3ccc(Cl)cc3)nnc2[nH]1`, for which the half-maximal activity concentration (AC50) is 39.8 µM [falling, single point].

For the compound `CCc1nc2ccccc2n1Cc1ccc(OC)c(OC)c1`, the AC50 is 5.01 µM [rising, partial curve].

Regarding `O=C(c1ccc(CSCc2ccccc2F)o1)N1CCN(c2ccc(N3CCOCC3)nn2)CC1`, the AC50 is 6.31 µM [falling, partial curve].

Regarding `COc1ccc2ccccc2c1/C=C\C(=O)c1ccccc1`, the AC50 was 7.94 µM [rising, single point] [measured here: IkB-luc green channel].

In the case of `COCCNc1ncnc2c1c(-c1ccccc1)cn2-c1ccc(C)c(Cl)c1`, the concentration at half-maximal activity (AC50) is 25.1 µM [falling, single point].

`O=C(NCc1ccco1)c1ccc2c(c1)N(Cc1ccccc1)C(=O)c1ccccc1S2(=O)=O`: the AC50 is 7.94 µM [falling, full curve, poor fit].

As for `Cc1ccc(CNC(=O)c2oc3c(c2C)-c2nn(Cc4ccc(Cl)cc4)cc2CC3)cc1`, the AC50 is 12.6 µM [falling, partial curve].

In the case of `Cc1cc(S(=O)(=O)C(CNC(=O)c2ccc(OC(C)C)cc2)c2cccs2)ccc1F` (centres undefined), the AC50 was 31.6 µM [falling, single point].

In the case of `CC1CCCN(S(=O)(=O)c2ccc(NC(=O)c3cccc(-n4cnnn4)c3)cc2)C1` (centres undefined), the AC50 is 39.8 µM [falling, single point].

For `COc1ccc(N2CCN(Cc3nc4c(c(=O)[nH]c(=O)n4C)n3Cc3ccc(Cl)cc3)CC2)cc1`, the AC50 was 31.6 µM [falling, single point].

With `COc1ccc(CCNC(=O)c2c(O)c3cccc4c3n(c2=O)CC4)cc1`, the AC50 was 25.1 µM [falling, partial curve].

`Cc1cccc(-c2nnc(SCc3cc(=O)c4cccc(Cl)c4[nH]3)n2C)c1`: the AC50 is 39.8 µM [falling, single point].

`COc1cccc2c1ncc1c(-c3ccc(C)cc3)nn(-c3cccc([N+](=O)[O-])c3)c12`: the AC50 is 31.6 µM [rising, partial curve].

For the compound `COc1ccc(NC(=O)N(CCC(C)C)C(C)c2cccs2)c(OC)c1` (centres undefined), the AC50 is 20 µM [falling, partial curve].

As for `Cc1ccc(C2CCN(C(=O)c3cnn(-c4cccc(Cl)c4)c3C3CCN(C(=O)OC(C)(C)C)CC3)C2)cc1` (centres undefined), the AC50 is 15.8 µM [falling, partial curve].

On to `Cc1cc(=O)[nH]c2nnc(SCC(=O)Nc3ccc(OC(F)(F)F)cc3)n12`, for which the AC50 is 3.98 µM [rising, partial curve].

As to `COc1ccc(OC)c(NC(=O)c2cc(-c3ccc(Cl)s3)nc3ccccc23)c1`, the AC50 is 2.51 µM [falling, full curve].

For `COc1ccc(OC)c(S(=O)(=O)N2CCC(C(=O)Nc3cccc(C(F)(F)F)c3)CC2)c1`, the AC50 is 15.8 µM [falling, partial curve].

Turning to `COC(=O)CN1C(=O)C2(C(C#N)=C(N)Oc3c2c(C)nn3-c2ccccc2)c2ccccc21` (centres undefined), the concentration at half-maximal activity (AC50) was 12.6 µM [falling, partial curve].

For `COc1ccccc1CNC(=O)C(Cc1ccccc1)NS(=O)(=O)c1ccc2c(c1)oc(=O)n2C` (centres undefined), the AC50 is 25.1 µM [falling, partial curve].

Take `c1ccc(-c2nc(N3CCCCCC3)c3ccccc3n2)nc1`: the AC50 is 31.6 µM [falling, partial curve].

Take `O=C1CC(c2nc3ccccc3n2CCCCOc2ccccc2)CN1c1ccccc1Cl` (centres undefined): the AC50 was 15.8 µM [falling, partial curve].

As for `CCc1nnc(NC(=O)CSc2nc3c([nH]c4ccccc43)c(=O)n2-c2cc(C)cc(C)c2)s1`, the AC50 was 39.8 µM [falling, single point].

As for `CC(=O)[C@@H]1[C@@H]2C(=O)N(c3ccc(F)c(Cl)c3)C(=O)[C@@H]2C2c3ccccc3C=CN21` (some centres undefined), the AC50 was 1.26 µM [falling, partial curve].

With `COc1ccc(CC(=O)Nc2nc3c(s2)CC(C(C)(C)C)CC3)cc1` (centres undefined), the AC50 was 39.8 µM [rising, partial curve].

As to `C(=N/Nc1nnc2c(n1)[nH]c1ccccc12)/c1cccnc1`, the half-maximal activity concentration (AC50) was 0.794 µM [falling, partial curve].

Turning to `O=C(CC1Sc2ncnn2C1=O)Nc1ccc(Br)cc1` (centres undefined), the AC50 was 25.1 µM [falling, partial curve].

`Cc1ccc(-c2nc3c(c(SCC(=O)N4CCCCC4)n2)Cc2cc(C)ccc2O3)cc1`: the AC50 was 20 µM [falling, single point].

Regarding `CCc1ccc(-c2nc(CSCC(=O)NCc3ccccc3OC)c(C)o2)cc1`, the AC50 was 25.1 µM [falling, partial curve].

With `CCOc1ccc(N2CC(c3nc(-c4cc(OC)c(OC)c(OC)c4)no3)CC2=O)cc1` (centres undefined), the AC50 is 31.6 µM [falling, partial curve].
